These are yes or no findings as the source states them, for the method shown. In cells and extracts the contact can be indirect. Some entries that bind do so weakly or less than the wild type.
What was measured:
[1] = molecular target: G5_(845-1508)-L1367P-TAP (human) (UniProt Q8TEQ6); test: co-IP
[2] = molecular target: G5_(845-1508)-WT-TAP (human) (UniProt Q8TEQ6); test: co-IP

B1: Gemin5 endogenous protein (natural protein, human (endogenous in HEK293), UniProt Q8TEQ6 1-1508, looked up)
chain: MGQEPRTLPPSPNWYCARCSDAVPGGLFGFAARTSVFLVRVGPGAGESPGTPPFRVIGELVGHTERVSGFTFSHHPGQYNLCATSSDDGTVKIWDVETKTVVTEHALHQHTISTLHWSPRVKDLIVSGDEKGVVFCYWFNRNDSQHLFIEPRTIFCLTCSPHHEDLVAIGYKDGIVVIIDISKKGEVIHRLRGHDDEIHSIAWCPLPGEDCLSINQEETSEEAEITNGNAVAQAPVTKGCYLATGSKDQTIRIWSCSRGRGVMILKLPFLKRRGGGIDPTVKERLWLTLHWPSNQPTQLVSSCFGGELLQWDLTQSWRRKYTLFSASSEGQNHSRIVFNLCPLQTEDDKQLLLSTSMDRDVKCWDIATLECSWTLPSLGGFAYSLAFSSVDIGSLAIGVGDGMIRVWNTLSIKNNYDVKNFWQGVKSKVTALCWHPTKEGCLAFGTDDGKVGLYDTYSNKPPQISSTYHKKTVYTLAWGPPVPPMSLGGEGDRPSLALYSCGGEGIVLQHNPWKLSGEAFDINKLIRDTNSIKYKLPVHTEISWKADGKIMALGNEDGSIEIFQIPNLKLICTIQQHHKLVNTISWHHEHGSQPELSYLMASGSNNAVIYVHNLKTVIESSPESPVTITEPYRTLSGHTAKITSVAWSPHHDGRLVSASYDGTAQVWDALREEPLCNFRGHRGRLLCVAWSPLDPDCIYSGADDFCVHKWLTSMQDHSRPPQGKKSIELEKKRLSQPKAKPKKKKKPTLRTPVKLESIDGNEEESMKENSGPVENGVSDQEGEEQAREPELPCGLAPAVSREPVICTPVSSGFEKSKVTINNKVILLKKEPPKEKPETLIKKRKARSLLPLSTSLDHRSKEELHQDCLVLATAKHSRELNEDVSADVEERFHLGLFTDRATLYRMIDIEGKGHLENGHPELFHQLMLWKGDLKGVLQTAAERGELTDNLVAMAPAAGYHVWLWAVEAFAKQLCFQDQYVKAASHLLSIHKVYEAVELLKSNHFYREAIAIAKARLRPEDPVLKDLYLSWGTVLERDGHYAVAAKCYLGATCAYDAAKVLAKKGDAASLRTAAELAAIVGEDELSASLALRCAQELLLANNWVGAQEALQLHESLQGQRLVFCLLELLSRHLEEKQLSEGKSSSSYHTWNTGTEGPFVERVTAVWKSIFSLDTPEQYQEAFQKLQNIKYPSATNNTPAKQLLLHICHDLTLAVLSQQMASWDEAVQALLRAVVRSYDSGSFTIMQEVYSAFLPDGCDHLRDKLGDHQSPATPAFKSLEAFFLYGRLYEFWWSLSRPCPNSSVWVRAGHRTLSVEPSQQLDTASTEETDPETSQPEPNRPSELDLRLTEEGERMLSTFKELFSEKHASLQNSQRTVAEVQETLAEMIRQHQKSQLCKSTANGPDKNEPEVEAEQPLCSSQSQCKEEKNEPLSLPELTKRLTEANQRMAKFPESIKAWPFPDVLECCLVLLLIRSHFPGCLAQEMQQQAQELLQKYGNTKTYRRHCQTFCM
B1 was tested, and the binding [1] was “binds” and the binding [2] was “binds”.

From publication doi:10.1101/2022.01.25.477707 (bioRxiv, 2022)
